# Measured values: the supplement of paper PMC12067093, “Discovery and optimisation of a covalent ligand for TRIM25 and its application to targeted protein ubiquitination” (Chemical Science, 2025)
# Protein sequences, listed by entry. Tags and fused reporters are not part of them. Lines headed by an entry give the natural chain unless they say otherwise; changes in a name come on top.
# UniProt Q9H2P0: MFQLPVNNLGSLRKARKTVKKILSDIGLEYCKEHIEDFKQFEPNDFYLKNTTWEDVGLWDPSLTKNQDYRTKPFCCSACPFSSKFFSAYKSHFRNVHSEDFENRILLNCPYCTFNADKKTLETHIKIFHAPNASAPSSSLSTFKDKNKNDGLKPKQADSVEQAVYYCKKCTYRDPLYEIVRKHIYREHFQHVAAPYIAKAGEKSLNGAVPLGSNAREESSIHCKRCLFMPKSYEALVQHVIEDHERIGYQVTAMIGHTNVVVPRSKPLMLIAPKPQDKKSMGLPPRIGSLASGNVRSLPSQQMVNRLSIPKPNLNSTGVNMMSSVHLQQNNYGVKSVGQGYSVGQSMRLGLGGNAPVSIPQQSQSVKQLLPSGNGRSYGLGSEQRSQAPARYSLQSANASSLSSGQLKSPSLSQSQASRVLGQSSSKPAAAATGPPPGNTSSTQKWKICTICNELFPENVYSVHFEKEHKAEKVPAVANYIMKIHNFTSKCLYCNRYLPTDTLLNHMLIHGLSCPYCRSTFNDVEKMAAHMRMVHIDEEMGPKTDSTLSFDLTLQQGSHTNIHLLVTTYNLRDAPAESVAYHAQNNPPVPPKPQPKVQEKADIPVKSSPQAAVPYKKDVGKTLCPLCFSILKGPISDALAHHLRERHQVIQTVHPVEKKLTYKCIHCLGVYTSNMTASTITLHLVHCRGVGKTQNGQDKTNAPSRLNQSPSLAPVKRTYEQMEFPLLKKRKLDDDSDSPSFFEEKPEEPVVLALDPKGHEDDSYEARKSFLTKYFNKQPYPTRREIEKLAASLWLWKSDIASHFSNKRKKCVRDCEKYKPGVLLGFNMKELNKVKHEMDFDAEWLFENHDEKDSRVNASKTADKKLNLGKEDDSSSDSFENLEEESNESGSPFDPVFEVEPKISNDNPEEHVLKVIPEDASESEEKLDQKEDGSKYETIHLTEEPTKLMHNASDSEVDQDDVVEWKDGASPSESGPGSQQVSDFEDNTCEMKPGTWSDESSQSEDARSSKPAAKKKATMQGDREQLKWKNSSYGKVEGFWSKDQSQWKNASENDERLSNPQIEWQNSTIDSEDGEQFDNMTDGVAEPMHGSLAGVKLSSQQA
# UniProt P35573: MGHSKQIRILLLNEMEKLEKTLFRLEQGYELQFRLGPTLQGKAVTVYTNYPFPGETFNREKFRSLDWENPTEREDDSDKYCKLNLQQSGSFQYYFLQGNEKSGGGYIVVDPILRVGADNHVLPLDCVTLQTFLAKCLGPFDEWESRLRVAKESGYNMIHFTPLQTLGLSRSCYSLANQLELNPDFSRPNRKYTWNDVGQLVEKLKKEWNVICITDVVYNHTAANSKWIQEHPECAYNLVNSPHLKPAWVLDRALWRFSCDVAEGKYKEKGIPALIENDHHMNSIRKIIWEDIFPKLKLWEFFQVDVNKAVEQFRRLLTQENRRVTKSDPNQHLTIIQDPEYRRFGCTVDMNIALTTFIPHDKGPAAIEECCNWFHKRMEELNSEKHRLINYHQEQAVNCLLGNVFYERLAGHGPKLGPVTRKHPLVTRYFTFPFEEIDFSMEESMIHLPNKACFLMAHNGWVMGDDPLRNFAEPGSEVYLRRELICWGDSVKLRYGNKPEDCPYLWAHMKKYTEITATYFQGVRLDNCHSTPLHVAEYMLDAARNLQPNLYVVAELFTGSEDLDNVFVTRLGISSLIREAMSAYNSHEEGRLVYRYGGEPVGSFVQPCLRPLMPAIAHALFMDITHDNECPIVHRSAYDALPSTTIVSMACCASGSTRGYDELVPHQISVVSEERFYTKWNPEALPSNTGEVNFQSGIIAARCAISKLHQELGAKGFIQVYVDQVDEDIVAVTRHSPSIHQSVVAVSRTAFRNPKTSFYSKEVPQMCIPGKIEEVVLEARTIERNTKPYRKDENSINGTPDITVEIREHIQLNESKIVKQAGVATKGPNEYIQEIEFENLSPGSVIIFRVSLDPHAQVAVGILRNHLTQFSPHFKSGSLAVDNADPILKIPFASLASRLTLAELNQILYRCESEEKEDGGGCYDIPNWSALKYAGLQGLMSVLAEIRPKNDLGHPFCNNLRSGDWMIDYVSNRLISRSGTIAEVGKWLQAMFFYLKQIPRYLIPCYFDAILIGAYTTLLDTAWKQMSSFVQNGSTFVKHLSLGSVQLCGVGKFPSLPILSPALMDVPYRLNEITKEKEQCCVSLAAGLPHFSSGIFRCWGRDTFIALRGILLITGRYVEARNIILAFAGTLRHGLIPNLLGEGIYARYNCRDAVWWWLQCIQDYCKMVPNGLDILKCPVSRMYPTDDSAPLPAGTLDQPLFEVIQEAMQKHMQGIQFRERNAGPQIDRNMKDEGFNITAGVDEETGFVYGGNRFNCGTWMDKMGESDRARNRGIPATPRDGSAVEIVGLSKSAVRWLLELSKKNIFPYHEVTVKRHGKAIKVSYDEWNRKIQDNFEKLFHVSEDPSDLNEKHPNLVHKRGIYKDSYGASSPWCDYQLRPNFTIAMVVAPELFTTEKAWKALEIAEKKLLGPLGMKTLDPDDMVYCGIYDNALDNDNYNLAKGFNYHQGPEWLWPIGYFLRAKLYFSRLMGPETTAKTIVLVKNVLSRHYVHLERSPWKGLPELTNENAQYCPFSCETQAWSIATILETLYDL
# UniProt O60488: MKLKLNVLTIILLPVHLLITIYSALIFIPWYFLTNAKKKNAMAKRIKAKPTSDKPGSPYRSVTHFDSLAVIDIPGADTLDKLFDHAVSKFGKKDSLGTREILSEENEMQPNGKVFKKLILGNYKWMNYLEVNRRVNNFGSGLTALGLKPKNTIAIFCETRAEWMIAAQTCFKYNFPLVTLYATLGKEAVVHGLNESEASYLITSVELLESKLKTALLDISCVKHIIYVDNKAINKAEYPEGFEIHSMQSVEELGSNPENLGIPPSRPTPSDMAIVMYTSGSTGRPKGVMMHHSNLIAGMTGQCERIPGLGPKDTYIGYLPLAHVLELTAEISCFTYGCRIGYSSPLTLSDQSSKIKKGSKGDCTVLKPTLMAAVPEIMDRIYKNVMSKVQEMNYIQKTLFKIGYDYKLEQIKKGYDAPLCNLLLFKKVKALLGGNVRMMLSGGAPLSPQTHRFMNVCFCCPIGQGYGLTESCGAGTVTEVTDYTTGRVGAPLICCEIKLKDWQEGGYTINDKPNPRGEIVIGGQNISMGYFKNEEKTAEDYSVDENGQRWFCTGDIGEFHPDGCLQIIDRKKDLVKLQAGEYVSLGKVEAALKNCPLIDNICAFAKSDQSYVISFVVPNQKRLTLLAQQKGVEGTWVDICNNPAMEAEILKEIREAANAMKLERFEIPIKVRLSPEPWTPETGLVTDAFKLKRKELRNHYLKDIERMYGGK
# UniProt P33121: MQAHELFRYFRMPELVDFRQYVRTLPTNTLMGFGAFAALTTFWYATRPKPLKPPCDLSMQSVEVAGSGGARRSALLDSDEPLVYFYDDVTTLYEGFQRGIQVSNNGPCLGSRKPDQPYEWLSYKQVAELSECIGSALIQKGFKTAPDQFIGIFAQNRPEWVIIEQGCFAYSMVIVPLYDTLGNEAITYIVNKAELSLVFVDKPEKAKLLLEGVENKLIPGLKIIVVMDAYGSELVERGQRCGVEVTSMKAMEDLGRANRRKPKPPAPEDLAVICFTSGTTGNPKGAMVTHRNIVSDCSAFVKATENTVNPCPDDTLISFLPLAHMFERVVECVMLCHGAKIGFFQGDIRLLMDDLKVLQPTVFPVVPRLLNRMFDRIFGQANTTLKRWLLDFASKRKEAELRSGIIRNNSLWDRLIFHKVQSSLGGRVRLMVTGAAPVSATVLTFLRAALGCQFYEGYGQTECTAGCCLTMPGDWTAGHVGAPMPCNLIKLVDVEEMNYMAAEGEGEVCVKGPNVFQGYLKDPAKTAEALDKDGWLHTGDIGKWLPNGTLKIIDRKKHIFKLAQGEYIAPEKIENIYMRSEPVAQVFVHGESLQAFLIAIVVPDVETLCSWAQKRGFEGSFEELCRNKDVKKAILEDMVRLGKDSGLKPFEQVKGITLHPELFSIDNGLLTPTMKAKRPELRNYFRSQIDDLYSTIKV
# UniProt P35612: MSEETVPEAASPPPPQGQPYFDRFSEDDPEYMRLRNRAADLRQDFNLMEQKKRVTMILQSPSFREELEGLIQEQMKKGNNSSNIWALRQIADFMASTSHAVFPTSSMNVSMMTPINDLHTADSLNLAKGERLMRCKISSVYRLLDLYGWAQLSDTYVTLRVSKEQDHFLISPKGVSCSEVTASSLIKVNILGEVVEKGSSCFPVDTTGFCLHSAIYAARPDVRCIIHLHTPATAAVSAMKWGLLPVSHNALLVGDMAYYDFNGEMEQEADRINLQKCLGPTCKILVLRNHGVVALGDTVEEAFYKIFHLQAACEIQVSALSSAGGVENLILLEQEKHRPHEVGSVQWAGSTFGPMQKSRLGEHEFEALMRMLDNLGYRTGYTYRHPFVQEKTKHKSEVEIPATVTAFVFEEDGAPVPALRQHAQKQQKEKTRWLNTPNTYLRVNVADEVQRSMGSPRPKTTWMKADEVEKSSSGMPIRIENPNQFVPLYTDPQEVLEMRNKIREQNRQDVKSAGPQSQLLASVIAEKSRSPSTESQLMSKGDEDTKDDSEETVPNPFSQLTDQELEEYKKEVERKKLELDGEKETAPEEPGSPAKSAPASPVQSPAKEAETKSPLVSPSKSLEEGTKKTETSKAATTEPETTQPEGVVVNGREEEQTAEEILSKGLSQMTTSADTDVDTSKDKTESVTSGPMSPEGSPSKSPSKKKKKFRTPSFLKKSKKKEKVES
# UniProt Q9H6R3: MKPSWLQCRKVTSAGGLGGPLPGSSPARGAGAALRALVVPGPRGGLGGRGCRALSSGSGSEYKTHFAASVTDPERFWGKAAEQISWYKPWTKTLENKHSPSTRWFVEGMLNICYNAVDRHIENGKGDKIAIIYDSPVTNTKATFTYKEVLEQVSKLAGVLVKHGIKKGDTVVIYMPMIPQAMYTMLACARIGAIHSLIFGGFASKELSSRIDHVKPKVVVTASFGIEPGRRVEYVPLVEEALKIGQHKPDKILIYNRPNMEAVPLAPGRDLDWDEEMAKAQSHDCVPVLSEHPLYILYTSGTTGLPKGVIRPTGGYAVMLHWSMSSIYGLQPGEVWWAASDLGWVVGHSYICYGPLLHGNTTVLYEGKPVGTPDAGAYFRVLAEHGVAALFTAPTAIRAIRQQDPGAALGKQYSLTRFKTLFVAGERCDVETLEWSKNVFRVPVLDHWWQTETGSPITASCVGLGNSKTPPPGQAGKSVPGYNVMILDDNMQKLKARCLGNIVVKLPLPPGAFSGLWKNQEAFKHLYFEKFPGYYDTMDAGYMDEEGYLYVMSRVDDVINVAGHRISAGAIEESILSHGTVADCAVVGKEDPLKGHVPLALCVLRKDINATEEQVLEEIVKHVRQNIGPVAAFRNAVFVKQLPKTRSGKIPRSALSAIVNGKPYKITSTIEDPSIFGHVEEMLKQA
# UniProt Q16186: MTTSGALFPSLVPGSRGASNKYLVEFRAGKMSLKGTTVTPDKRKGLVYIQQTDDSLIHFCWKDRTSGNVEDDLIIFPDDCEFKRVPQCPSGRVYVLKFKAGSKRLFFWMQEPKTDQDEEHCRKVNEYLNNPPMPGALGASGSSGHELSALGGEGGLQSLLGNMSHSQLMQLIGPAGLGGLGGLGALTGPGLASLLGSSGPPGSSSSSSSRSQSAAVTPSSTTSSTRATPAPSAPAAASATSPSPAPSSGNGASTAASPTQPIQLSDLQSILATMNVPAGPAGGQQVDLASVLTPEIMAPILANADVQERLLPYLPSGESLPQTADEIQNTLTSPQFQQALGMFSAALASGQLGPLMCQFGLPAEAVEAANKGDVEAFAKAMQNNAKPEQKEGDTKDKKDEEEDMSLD
# UniProt O95573: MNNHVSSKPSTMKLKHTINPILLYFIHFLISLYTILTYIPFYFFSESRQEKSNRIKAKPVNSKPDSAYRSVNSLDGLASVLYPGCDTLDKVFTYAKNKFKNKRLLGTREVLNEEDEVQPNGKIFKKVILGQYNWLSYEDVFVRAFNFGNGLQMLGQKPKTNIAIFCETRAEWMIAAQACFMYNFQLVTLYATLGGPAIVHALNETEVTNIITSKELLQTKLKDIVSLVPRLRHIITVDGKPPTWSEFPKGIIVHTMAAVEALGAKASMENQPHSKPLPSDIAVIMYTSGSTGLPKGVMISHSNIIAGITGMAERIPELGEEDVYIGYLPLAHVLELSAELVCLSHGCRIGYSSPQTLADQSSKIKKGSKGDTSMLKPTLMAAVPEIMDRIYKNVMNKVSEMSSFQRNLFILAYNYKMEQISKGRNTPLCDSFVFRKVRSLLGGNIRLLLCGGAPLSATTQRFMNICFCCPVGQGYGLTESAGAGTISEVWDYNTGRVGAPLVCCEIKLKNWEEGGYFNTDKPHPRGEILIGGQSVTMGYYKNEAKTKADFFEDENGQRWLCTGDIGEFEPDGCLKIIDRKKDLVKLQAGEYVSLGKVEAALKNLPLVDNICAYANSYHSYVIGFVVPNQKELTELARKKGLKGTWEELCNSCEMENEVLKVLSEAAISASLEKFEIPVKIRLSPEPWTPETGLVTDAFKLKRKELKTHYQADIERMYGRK
# Some of the results follow.
# Compound: Cc1cc(ccc1-c1ccccc1)C(=O)N1CCCN(CC1)C(=O)CCl [compound 10]
# Assay: probe-labelled cysteine peptide fold change vs DMSO (competition) (log2 fold change); higher = less target engagement (more negative = stronger competition)
# Conditions: THP-1, incubation time: 4 h
# 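Further: competitive profiling in live THP-1 cells: cysteine peptides tagged with an iodoacetamide desthiobiotin (IA-DTB) probe, intensity after compound treatment relative to DMSO-treated cells.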
Target,probe-labelled cysteine peptide fold change (10 µM),probe-labelled cysteine peptide fold change (50 µM)
ADNP_Q9H2P0_226_CLFMPK (UniProt Q9H2P0),0.111,0.0181
ADGRA2_Q96PE1_1147_LTNLQLAQSQVCEAGAAAGGEGEPEPAGTR (UniProt Q96PE1),-0.512,-0.0968
AGL_P35573_528_LDNCHSTPLHVAEYMLDAAR (UniProt P35573),0.0113,-0.462
ADAM10_O14672_484_DECCFDANQPEGR (UniProt O14672),-0.216,-0.124
ACSL4_O60488_420_GYDAPLCNLLLFK (UniProt O60488),-0.123,-0.309
AFG3L2_Q9Y4W6_402_NAPCILFIDEIDAVGRK (UniProt Q9Y4W6),0.154,0.067
ACSL1_P33121_274_RKPKPPAPEDLAVICFTSGTTGNPK (UniProt P33121),0.064,-0.191
ADD2_P35612_210_GSSCFPVDTTGFCLHSAIYAARPDVR (UniProt P35612),-0.237,-0.0743
ACSS3_Q9H6R3_602_GHVPLALCVLR (UniProt Q9H6R3),0.137,-0.0104
AGBL1_Q96MI9_809_CSLSGEDLNR (UniProt Q96MI9),-0.0904,-0.0247
ACSL1_P33121_274_KPKPPAPEDLAVICFTSGTTGNPK (UniProt P33121),-0.0595,0.0335
ACSF2_Q96CM8_77_TVGQCLETTAQR (UniProt Q96CM8),-0.254,-0.0666
ADD2_P35612_177_GVSCSEVTASSLIK (UniProt P35612),0.0303,0.0331
AGK_Q53H12_72_ATVFLNPAACK (UniProt Q53H12),0.0964,0.3
ADRM1_Q16186_60_GLVYIQQTDDSLIHFCWK (UniProt Q16186),0.00467,0.138
ACTR3B_Q9P1U1_408_DYEEYGPSICR (UniProt Q9P1U1),0.154,0.0944
ACSS3_Q9H6R3_285_AQSHDCVPVLSEHPLYILYTSGTTGLPK (UniProt Q9H6R3),0.038,0.0411
ACTL6A_O96019_152_EKLTELMFEHYNIPAFFLCK (UniProt O96019),0.164,-0.352

Target,probe-labelled cysteine peptide fold change (10 µM),probe-labelled cysteine peptide fold change (50 µM)
ACSL4_O60488_552_WFCTGDIGEFHPDGCLQIIDR (UniProt O60488),-0.176,-0.177
ADIPOR1_Q96A54_54_AEEEQTCPVPQEEEEEVR (UniProt Q96A54),-0.269,-0.0957
ACSL3_O95573_450_LLLCGGAPLSATTQR (UniProt O95573),-0.0957,-0.00742
ADGRL2_O95490_136_YLEVQYECVPYIFVCPGTLK (UniProt O95490),0.0252,0.148
ADPRH_P54922_90_HYQDCMEDMDGR (UniProt P54922),0.0025,0.114
ADNP_Q9H2P0_167_QADSVEQAVYYCK (UniProt Q9H2P0),0.131,-0.0465
ADAT3_Q96EY9_95_DAGSPHALEMLLCLAGPASGPR (UniProt Q96EY9),0.15,-0.00577
ACSL3_O95573_85_SVNSLDGLASVLYPGCDTLDK (UniProt O95573),0.0339,0.289
ADSS_P30520_58_VVDLLAQDADIVCR (UniProt P30520),0.0609,-0.246
ADK_P55263_140+143_AAEAHVDAHYYEQNEQPTGTCAACITGDNR (UniProt P55263),-0.278,-0.451
ADNP_Q9H2P0_112_ILLNCPYCTFNADKK (UniProt Q9H2P0),0.0542,0.0297
ACSL3_O95573_652_GTWEELCNSCEMENEVLK (UniProt O95573),-0.15,-0.212
ADH5_P11766_170_VCLLGCGISTGYGAAVNTAK (UniProt P11766),0.0396,-0.394
ADRM1_Q16186_80_TSGNVEDDLIIFPDDCEFK (UniProt Q16186),-0.151,0.0576
ADA_P00813_262_LRQENMHFEICPWSSYLTGAWKPDTEHAVIR (UniProt P00813),-0.101,-0.181
AGL_P35573_767_EVPQMCIPGK (UniProt P35573),-0.0748,-0.0362
ADNP_Q9H2P0_449_ICTICNELFPENVYSVHFEK (UniProt Q9H2P0),0.042,0.0582
ACP1_P24666_91_EDFATFDYILCMDESNLR (UniProt P24666),0.275,0.532
